PubChem BioAssay AID1487 (National Center for Advancing Translational Sciences (NCATS), 2009)
The other results are listed elsewhere or left out. Further columns of the screen follow, without active or inactive calls. Compounds called inactive in the main read-out are mostly missing here. Words in brackets tell the shape of the fitted curve; partial curves, single points and poor fits give uncertain potencies.

Experiment: qHTS Assay for Modulators of Lamin A Splicing
Conditions: HeLa LMNA splicing GFP/RFP minigene ratio, 48 h
How it was run: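 Read-out is the ratio of GFP to DsRed2 object intensity, acquired by 488 nm laser-scanning cytometry on HeLa lamin A-EGFP minigene reporter cells. Compound incubation 48 hrs at 37 °C in Opti-MEM with 2% FBS; DMSO 0.5% final.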

[1] = measured here: RFP viability control channel
[2] = measured here: GFP splicing reporter channel

Row | Structure (SMILES) | AC50 [1] | AC50 [2]
1 | CCN1CCN(C(=O)c2oc(=O)c3ccccc3c2-c2ccc(C)cc2)CC1 | 14.1 µM [rising, single point] | 
2 | CC(O)C(O)[C@H]1CNc2nc(N)[nH]c(=O)c2N1 (some centres undefined) |  | 1.58 µM [falling, partial curve, poor fit]
3 | COc1ccc(NC(=O)Cn2c(=O)oc3cc(Cl)ccc32)c(OC)c1 | 0.501 µM [falling, full curve] | 
4 | Cc1cc([N+](=O)[O-])ccc1-c1ccc(C2Nc3ccccc3C(=O)N2O)o1 (centres undefined) |  | 6.31 µM [falling, single point]
5 | CCOC(=O)N1CCN(c2nc(-c3ccc(OC)cc3)no2)CC1 | 12.6 µM [rising, partial curve] | 5.01 µM [rising, full curve]
6 | COC(=O)c1cc(NC(=O)c2ccc(-c3ccccc3)cc2)ccc1Cl | 8.91 µM [rising, partial curve] | 12.6 µM [rising, partial curve]
7 | COc1ccc(C2CC(c3ccccc3)=NN2C(=O)c2cccs2)cc1 (centres undefined) | 7.08 µM [rising, partial curve, poor fit] | 
8 | O=C(CSc1nc2c([nH]c3ccccc32)c(=O)n1-c1ccccc1)N1CCCc2ccccc21 |  | 0.316 µM [falling, full curve, poor fit]
9 | CCOC(=O)C1CCN(C(c2ccc(C)cc2)c2c(O)cc(C)n(CCOC)c2=O)CC1 (centres undefined) |  | 0.398 µM [rising, full curve, poor fit]
10 | CCO/C([O-])=N/c1c[n+](N2CCOCC2)no1 | 6.31 µM [falling, partial curve, poor fit] | 35.5 µM [falling, partial curve, poor fit]
11 | Cc1c(CC(Cl)(Cl)Cl)c2c(n1O)CC(C)(C)CC2=O |  | 35.5 µM [rising, single point]
12 | CC(=O)/C=C/c1ccc2ccccc2n1 | 1.41 µM [falling, single point] | 5.62 µM [falling, single point]
13 | CCc1ccccc1NC(=O)CCC(=O)OCC(=O)c1ccc(-c2ccccc2)cc1 | 0.126 µM [rising, full curve] | 0.0355 µM [rising, full curve, poor fit]
14 | Oc1ccccc1C1=Nc2ncnn2C(c2ccccc2)C1 (centres undefined) | 22.4 µM [rising, single point] | 17.8 µM [rising, single point]
15 | C=CCNC(=O)c1ccccc1NC(=O)c1ccc(Cl)c(S(=O)(=O)Nc2cccc(C)c2C)c1 | 17.8 µM [rising, partial curve, poor fit] | 
16 | CC1=CC(=O)C=C(C)C1=NOc1ccccc1[N+](=O)[O-] | 11.2 µM [rising, single point] | 12.6 µM [rising, single point]
17 | CC(C)c1ccc(CNc2nc3nc4c(c(=O)n3[nH]2)CCC4)cc1 | 3.16 µM [rising, partial curve, poor fit] | 
18 | CC(=O)c1ccc(NC(=S)NCc2ccc(Cl)cc2Cl)cc1 | 11.2 µM [rising, partial curve] | 12.6 µM [rising, single point]
19 | COc1ccc(N)c2c1OCCC2=O | 0.126 µM [rising, full curve] | 
20 | CCCS(=O)(=O)N1CCC(C(=O)N2CCOCC2)CC1 | 0.562 µM [falling, full curve, poor fit] | 0.794 µM [falling, full curve, poor fit]
21 | NC(=O)CNCCC(c1ccccc1)c1ccccc1 |  | 5.62 µM [falling, partial curve, poor fit]
22 | COc1ccc(-c2nc3cnc(N4CCN(C)CC4)nc3n(Cc3cccs3)c2=O)cc1 | 15.8 µM [falling, partial curve, poor fit] | 
23 | CCN(CC)S(=O)(=O)c1ccc(Oc2ccc(S(=O)(=O)N(CC)CC)cc2)cc1 | 2.51 µM [rising, full curve] | 
24 | COc1ccc(C2CC(c3ccco3)n3ncnc3N2)cc1 (centres undefined) |  | 35.5 µM [falling, single point]
25 | O=C1/C(=C/c2ccccc2O)SC(=S)N1Cc1cccnc1 |  | 11.2 µM [falling, partial curve, poor fit]
26 | O=C(/C=C/c1ccccc1)NC(NC(=S)Nc1cccc(Cl)c1)C(Cl)(Cl)Cl (centres undefined) | 8.91 µM [rising, partial curve] | 
27 | CCCCCN(CCCCC)C(=O)[C@H](CCC(=O)O)NC(=O)c1ccc(Cl)c(Cl)c1 | 3.16 µM [falling, single point] | 1.78 µM [falling, single point]
28 | CCCc1nc2ccccc2c(C(=O)OC(C)C(=O)NCc2ccc3c(c2)OCO3)c1CC (centres undefined) | 22.4 µM [rising, partial curve] | 17.8 µM [rising, partial curve]

Single records (already shown).
NC(=O)CNCCC(c1ccccc1)c1ccccc1 in the list: AC50 [2]: 5.62 µM [falling, partial curve, poor fit]
CC(C)c1ccc(CNc2nc3nc4c(c(=O)n3[nH]2)CCC4)cc1 in the list: AC50 [1]: 3.16 µM [rising, partial curve, poor fit]
